Screen size: about 200,000 compounds; about 25 (0.01%) were called active. Inconclusive results, whose numbers are uncertain, are shown with a selection of clear calls. Calls come from the whole dose curve; as a rule, active = well fitted inhibition curve with a large enough effect in the signal ratio, with a control signal flat (not every such curve was filed as active); inconclusive = small, poorly fitted or top-dose-only effect, or effect the other way, or a change in a side signal; inactive = flat fitted curve, though single readings scatter; the % refers to the signal ratio. Potencies beside an inconclusive call are fits to weak or partial responses and may not hold up.
assay: qHTS Assay for Modulators of Lamin A Splicing; conditions: HeLa LMNA splicing GFP/RFP minigene ratio, 48 h; ratio change, negative = inhibition: at 46.1 µM (top of the series) unless noted
Procedure, shortened: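 Read-out is the ratio of GFP to DsRed2 object intensity, acquired by 488 nm laser-scanning cytometry on HeLa lamin A-EGFP minigene reporter cells. Compound incubation 48 hrs at 37 °C in Opti-MEM with 2% FBS; DMSO 0.5% final.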
% is set by controls: 0 for no effect and ±100 for the full control effect; potency is the fitted concentration of half-maximal effect.

Row | SMILES | Potency | ratio change, negative = inhibition
1 | Cc1cc(C2(c3ccc(O)c(C)c3)C(=O)Nc3ccccc32)ccc1O | inconclusive: 35.5 µM [cytotoxic, single point] | –
2 | CCOC(=O)c1c(N)sc2c1CCC(CC)C2 (stereo unspecified) | – | inactive: 8.47%
3 | COc1ccccc1OC(=O)c1ccc2nsnc2c1 | – | inactive: -12.1%
4 | COc1ccccc1C(CCN(Cc1ccccc1)C(C)=O)c1ccco1 (stereo unspecified) | – | inconclusive: 56.2% [at 46 µM]
5 | CCOC(=O)c1nn(-c2cccc(C)c2)c2nc(-c3ccccc3)c(C#N)c(=O)n12 | – | inconclusive: 3.89%
6 | CCOc1ccccc1CNC(=O)CCc1c(C)nn(-c2ccc(N3CCCCC3)nn2)c1C | – | inconclusive: 4.37% [at 46 µM]
7 | CN(C)CCNC(=O)C1CCN(c2ncnc3c2nc2n3CCCCC2)CC1 | – | inactive: 4.41% [at 46 µM]
8 | CC(=O)NC(=S)Nc1ccc(NC(=O)COc2ccc(C(C)C)cc2)cc1 | – | inactive: 3.8%
9 | CN1C(=O)CCC1(O)c1ccccc1 (stereo unspecified) | – | inactive: -12.9%
10 | CN(C(=O)/C=C/c1cnc2ccccc2c1)C1CCCCC1 | – | inconclusive: 32.3% [at 9.22 µM]
11 | O=C(COc1ccc(NC(=O)c2ccccc2[N+](=O)[O-])cc1)c1ccc(F)cc1 | – | inconclusive: 24.2% [at 46 µM]
12 | COc1cc(C(=S)N2CCOCC2)ccc1OS(=O)(=O)c1ccc(NC(C)=O)cc1 | inconclusive: 7.94 µM [falling, partial curve] | –
13 | Cc1ccc(C)n1-c1ccc(C(=O)O)cc1 | – | inconclusive: 30.2%
14 | O=[N+]([O-])c1nn(-c2ccc3c(c2)OCCO3)n(O)c1=NCCC1=CCCCC1 | – | inconclusive: 10.9% [at 46 µM]
15 | CC(=O)Nc1c(C)nn(-c2ccccc2)c1N1CCC(C(=O)NCc2cccc(Cl)c2)CC1 | – | inconclusive: 8.33% [at 46 µM]
16 | CSC(N)=NCCC[C@H](N)C(=O)O | – | inactive: -17.6%
17 | COCCNC(=S)N(CCc1c(C)[nH]c2ccc(F)cc12)Cc1cccs1 | – | inactive: 0.46% [at 9.22 µM]
18 | COc1ccc(CCN2CCCn3c2nc2c3c(=O)n(Cc3ccccc3F)c(=O)n2C)cc1OC | – | inactive: 4.07%
19 | Cn1c(N)c(C(=O)CSc2ccccn2)c(=O)n(C)c1=O | – | inactive: -2.97%
20 | Cc1ccc2cc(CCNC(=O)c3ccc(Br)o3)c(=O)[nH]c2c1 | – | inactive: -0.716%
21 | CCN1CCN(C(=O)c2cnn(-c3ccc(F)cc3F)c2C2CCN(C(=O)OC(C)(C)C)CC2)CC1 | – | inactive: 17.6% [at 46 µM]

Row | SMILES | Potency | ratio change, negative = inhibition
22 | CSCSC1=C(C#N)C(c2ccccc2Cl)C(C(C)=O)=C(C)N1 (stereo unspecified) | – | inactive: -7.05%
23 | Cc1sc2nc(C3CC3)nc(SCC(=O)NCc3ccco3)c2c1C | – | inconclusive: 24.3%
24 | CCOc1ncccc1C(=O)Nc1cccc(-c2nnc3n2CCCCC3)c1 | – | inconclusive: -9.68% [at 46 µM]
25 | Cc1cccc2sc(NNC(=O)c3cc(-c4cccs4)nc4ccccc34)nc12 | inconclusive: 3.55 µM [falling, full curve] | –
26 | CCCc1cc(-c2n[nH]c(=S)n2CC)c2ccccc2n1 | – | inconclusive: 12.5%
27 | Cc1c(Cl)c(C(=O)NC2CCCC2)nn1C | – | inactive: -3.01%
28 | O=C(CN(CC1CCCO1)C(=O)CCC(=O)Nc1ccccn1)NCc1ccccc1 (stereo unspecified) | – | inactive: -3.27%
29 | COc1ccc(NC(=O)Cn2c(=O)c3cccn3c3ccccc32)cc1Cl | – | inconclusive: -6.81% [at 46 µM]
30 | O=S(=O)(c1ccc(F)cc1)N1CN(Cc2ccco2)c2nc3ccccc3nc21 | – | inconclusive: 30.6%
31 | O=C(Nc1ccc(-c2nc3ccccc3o2)c(O)c1)c1ccccc1 | – | inconclusive: 21.6% [at 46 µM]
32 | Cc1cc(C)cc(NC(=O)CN2CCCN(S(=O)(=O)c3ccc(Br)s3)CC2)c1 | inconclusive: 6.31 µM [activator, partial curve] | –
33 | COc1ccc(C(c2c(NC(=O)c3ccccc3)sc(C)c2C)N2CCN(CCO)CC2)cc1 (stereo unspecified) | – | inconclusive: -45%
34 | Cc1ccc(CO/N=C/C2=C(Cl)c3ccccc3CC2)cc1 | – | inconclusive: 9.17%
35 | CCC(CC)C(=O)Nc1nnc(SCC(=O)NC(C)(C)C)s1 | – | inactive: -3.25% [at 9.22 µM]
36 | N#C/C(=C\c1coc2ccccc2c1=O)C(N)=S | inconclusive: 35.5 µM [rising, single point] | –
37 | O=C(CCc1ccccc1)NCc1ccccc1 | – | inactive: 5.42% [at 46 µM]
38 | CC(=O)c1cc(C#N)c(SCC(=O)OC(C)C)nc1C | – | inactive: -6.95%
39 | COc1cc(CCC(=O)Nc2ccc(C)c(S(=O)(=O)N(C)C)c2)cc(OC)c1OC | inconclusive: 12.6 µM [fluorescent, partial curve] | –
40 | CC(=O)Nc1ccc(C)c([N+](=O)[O-])c1 | – | inconclusive: 12.2% [at 46 µM]
41 | CC1=C(C(=O)Nc2ccccc2)C(c2cc(CN3CCOCC3)cs2)C2=C(CCCC2=O)N1 (stereo unspecified) | – | inconclusive: 16.9% [at 46 µM]
42 | Cc1cc(C(F)(F)F)c(C#N)c(SCC(=O)Nc2nc3cc(Br)ccc3s2)n1 | – | inconclusive: -36.1%

Row | SMILES | Potency | ratio change, negative = inhibition
43 | O=C(COC(=O)c1cc(S(=O)(=O)Nc2ccccc2Cl)ccc1O)Nc1nc2ccccc2s1 | – | inconclusive: -20.3% [at 46 µM]
44 | O=C(CSc1cccc[n+]1[O-])N1CCc2ccccc21 | – | inconclusive: -9.75% [at 46 µM]
45 | CCCCNc1ccc(C(=O)OCCN(C)C)cc1 | – | inconclusive: -9.96%
46 | CCN1CCN(C(c2ccc(OC)cc2)c2nnnn2Cc2ccc3c(c2)OCO3)CC1 (stereo unspecified) | – | inconclusive: -1.76% [at 46 µM]
47 | O=C(Nc1ccc(Cl)cc1Cl)c1cc(S(=O)(=O)N2CCCCCC2)ccc1F | – | inconclusive: -6.88% [at 46 µM]
48 | CCOC(CNC(=O)c1ccc(N2CCc3ccccc32)c([N+](=O)[O-])c1)OCC | – | inconclusive: -36.9%
49 | O=C(Cn1ccn(-c2ccc(F)cc2)c(=O)c1=O)Nc1ccccc1C(F)(F)F | – | inactive: 15.3% [at 46 µM]
50 | COc1ccccc1NC(=O)CN1C(=O)NC2(CCCCCCC2)C1=O | – | inconclusive: -21.8% [at 46 µM]
51 | O=C1NC2(C=Cc3c(ccc4ccccc34)O2)Oc2ccccc21 (stereo unspecified) | inconclusive: 35.5 µM [cytotoxic, single point] | –
52 | Cc1ccccc1C(=O)NCc1nnc(SCC(=O)N2CCN(c3ccccc3)CC2)n1C | – | inactive: -7.22%
53 | CCOC(=O)c1[nH]c2ccc(Cl)cc2c1NC(=O)/C=C/c1ccc2c(c1)OCO2 | – | inactive: -8.68%
54 | COc1ccc(CCNC(=O)CSc2nnnn2C)cc1OC | – | inconclusive: 10.7% [at 46 µM]
55 | CCOC(=O)c1c(-c2ccccc2)csc1NC(=O)CSc1nnc(C)s1 | inconclusive: 10 µM [fluorescent, partial curve] | –
56 | Cc1ccc(S(=O)(=O)Nc2cc(=O)[nH]c(SCC(=O)Nc3ccccc3Cl)n2)cc1 | – | inconclusive: 25.2% [at 46 µM]
57 | COc1ccc(NC(=O)CN2C(=O)C(C)(C)c3ccccc32)cc1Cl | – | inconclusive: -9.98% [at 46 µM]
58 | COc1cc(CNC(=O)c2sc3ncccc3c2-n2cccc2)cc(OC)c1OC | – | inactive: 2.45% [at 46 µM]
59 | O=C(C(Cc1ccccc1)n1cccc1)N1CCCCCC1 (stereo unspecified) | – | inactive: -6.31%
60 | Cc1cc(C(=O)CSc2nnc(N)s2)c(C)n1CCc1ccc(Cl)cc1 | inconclusive: 35.5 µM [falling, single point] | –
61 | N#Cc1nc(-c2ccc(COc3ccccc3)o2)oc1NCc1cccnc1 | – | inactive: -4.53% [at 46 µM]
62 | CCCS(=O)(=O)N1CCN(Cc2ccc3c(c2)c2ccccc2n3CC)CC1 | inconclusive: 35.5 µM [fluorescent, single point] | –
63 | Cc1oc(-c2ccc(F)cc2)nc1CN(Cc1ccccn1)CC1CCCO1 (stereo unspecified) | – | inconclusive: -23.2% [at 46 µM]

Taken from above.
O=C(C(Cc1ccccc1)n1cccc1)N1CCCCCC1 (stereo unspecified) – ratio change, negative = inhibition: inactive: -6.31%
COc1cc(CNC(=O)c2sc3ncccc3c2-n2cccc2)cc(OC)c1OC – ratio change, negative = inhibition: inactive: 2.45% [at 46 µM]

Next records

Row | SMILES | Potency | ratio change, negative = inhibition
64 | Fc1cccc(-c2cc3nc4c(c(N5CCC6(CC5)OCCO6)n3n2)CCCC4)c1 | – | inconclusive: 0.706%
65 | O=C(CN(c1ccc(Cl)cc1)S(=O)(=O)c1ccc(Cl)c([N+](=O)[O-])c1)NCCc1ccc(F)cc1 | – | inconclusive: 6.04%
66 | Cc1ncc(COP(=O)(O)O)c(C=O)c1O | – | inconclusive: -9.88%
67 | Cc1nc2cc(C(=O)NCCC3=CCCCC3)ccc2n1-c1ccc(Br)cc1 | – | inconclusive: -18.1% [at 46 µM]
68 | CSc1nc(Nc2ccc(C)cc2C)cc(-c2ccccc2)n1 | – | inconclusive: -31.9% [at 46 µM]
69 | CCCCCNC(=O)c1ccc2c(c1)ncn2-c1cccc(C)c1 | – | inactive: -25.3% [at 46 µM]
70 | O=C(/C=C/c1ccccc1)/C=C/c1ccccc1 | inconclusive: 17.8 µM [falling, partial curve] | –
71 | Cc1ccc(NS(=O)(=O)c2cc(C(=O)Nc3cccc([N+](=O)[O-])c3)ccc2C)cc1 | inconclusive: 35.5 µM [inhibitor, single point] | –
72 | CCCCOC(=O)c1ccc(OC(=O)c2sc3ncn(Cc4cccc(F)c4)c(=O)c3c2C)cc1 | – | inactive: 8.23% [at 46 µM]
73 | COc1ccccc1-n1c(C)cc(/C=C2/C(=N)N3C(=NC2=O)SN=C3S(C)(=O)=O)c1C | – | inconclusive: 21.2% [at 9.22 µM]
74 | Clc1ccc(-c2nnc3c4ccccc4nc(N4CCOCC4)n23)cc1Cl | inconclusive: 11.2 µM [inhibitor, single point] | –
75 | CSCC(=O)NS(=O)(=O)c1ccc(C)cc1 | – | inconclusive: -5.57%
76 | CCc1cccc2c(C(=O)COC(=O)c3ccc([N+](=O)[O-])s3)c[nH]c12 | – | inactive: -6.36%
77 | CC(C)NC(=S)Nc1ccc2nc3n(c(=O)c2c1)CCCCC3 | – | inactive: -3.6%
78 | CCOc1cc(CNc2ccc(N3CCCCC3)cc2)cc(Br)c1OCC(=O)NC(C)(C)C | inconclusive: 35.5 µM [falling, single point] | –
79 | CCCCN(Cc1ccccc1)S(=O)(=O)c1ccc2[nH]c(=O)oc2c1 | – | inconclusive: -26%
80 | COc1ccc(OC)c(C(c2nnnn2C2CCCC2)N2CCN(c3ccccc3)CC2)c1 (stereo unspecified) | – | inactive: 4.52%
81 | O=C(O)c1cc2c(s1)CCCC2 | – | inactive: -8.91%

5 records picked at random from the list so far:
Row | SMILES | Potency | ratio change, negative = inhibition
69 | CCCCCNC(=O)c1ccc2c(c1)ncn2-c1cccc(C)c1 | – | inactive: -25.3% [at 46 µM]
70 | O=C(/C=C/c1ccccc1)/C=C/c1ccccc1 | inconclusive: 17.8 µM [falling, partial curve] | –
65 | O=C(CN(c1ccc(Cl)cc1)S(=O)(=O)c1ccc(Cl)c([N+](=O)[O-])c1)NCCc1ccc(F)cc1 | – | inconclusive: 6.04%
71 | Cc1ccc(NS(=O)(=O)c2cc(C(=O)Nc3cccc([N+](=O)[O-])c3)ccc2C)cc1 | inconclusive: 35.5 µM [inhibitor, single point] | –
64 | Fc1cccc(-c2cc3nc4c(c(N5CCC6(CC5)OCCO6)n3n2)CCCC4)c1 | – | inconclusive: 0.706%
